Results from ChEMBL document CHEMBL4000220, “Optimization of spirocyclic proline tryptophan hydroxylase-1 inhibitors” (Bioorg Med Chem Lett, 2017).

Test: Drug level in rat hepatocytes treated with ethyl 8-(2-amino-6-((R)-1-(4-chloro-2-(3-methyl-1H-pyrazol-1-yl)phenyl)-2,2,2-trifluoroethoxy)pyrimidin-4-yl)-2,8-diazaspiro[4.5]decane-3-carboxylate
Assay type: ADME, cell-based, Hepatocyte

Cc1ccn(-c2cc(Cl)ccc2[C@@H](Oc2cc(N3CCC4(CC3)CNC(C(=O)O)C4)nc(N)n2)C(F)(F)F)n1 (stereo partly specified)
Drug metabolism: Metabolite_Detected
